The values below come from paper doi:10.1101/2023.01.13.523596.

Protein sequences, listed by entry. Tags and fused reporters are not part of them.
UniProt P30051: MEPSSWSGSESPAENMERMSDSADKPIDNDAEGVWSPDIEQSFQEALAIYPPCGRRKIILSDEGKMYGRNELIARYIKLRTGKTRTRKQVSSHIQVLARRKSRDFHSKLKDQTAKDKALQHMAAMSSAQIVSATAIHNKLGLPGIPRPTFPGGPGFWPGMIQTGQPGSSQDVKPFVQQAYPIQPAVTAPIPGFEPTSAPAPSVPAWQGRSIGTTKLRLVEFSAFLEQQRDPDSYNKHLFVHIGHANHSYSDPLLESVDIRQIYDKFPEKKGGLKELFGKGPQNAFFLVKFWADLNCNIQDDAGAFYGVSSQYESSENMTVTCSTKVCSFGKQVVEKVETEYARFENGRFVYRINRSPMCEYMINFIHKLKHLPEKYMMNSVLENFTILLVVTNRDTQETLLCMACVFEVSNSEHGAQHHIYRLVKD
UniProt P46938: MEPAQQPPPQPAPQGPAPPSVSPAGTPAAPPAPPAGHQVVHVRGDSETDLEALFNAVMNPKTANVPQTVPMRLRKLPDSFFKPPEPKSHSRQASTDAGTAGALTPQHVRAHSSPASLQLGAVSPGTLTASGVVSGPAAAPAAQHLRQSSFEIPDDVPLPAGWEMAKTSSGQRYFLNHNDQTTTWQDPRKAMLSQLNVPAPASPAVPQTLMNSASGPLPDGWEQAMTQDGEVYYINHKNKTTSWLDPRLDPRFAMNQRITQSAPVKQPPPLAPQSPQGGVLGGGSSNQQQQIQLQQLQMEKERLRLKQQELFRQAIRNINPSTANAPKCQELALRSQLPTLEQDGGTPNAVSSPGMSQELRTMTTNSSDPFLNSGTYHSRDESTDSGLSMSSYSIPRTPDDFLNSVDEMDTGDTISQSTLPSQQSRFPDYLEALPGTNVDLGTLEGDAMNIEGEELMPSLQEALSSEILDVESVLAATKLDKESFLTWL

This experiment has as its target TEAD1 (mouse (endogenous in aorta and inferior vena cava)) (UniProt P30051). Kind of experiment: proximity ligation.

Results are given in words; binding and its absence hold for the method and conditions named. Binding seen in cells or lysates may run through a third protein. Some results given as binding are weak or reduced against the parent protein; the word gives no strength.

As for “Yes-associated protein (YAP) (from UniProt P46938 1-488)”, the binding entry was “binds”.
